{
  "source": "patent US6828450B2",
  "about": "“Triptycene analogs” (Kansas State University Research Foundation, priority 2000, dated 2004)",
  "key": {"[1]": {"system": "L1210 cells", "assay": "Nucleoside transport (30-sec cellular uptake) in L1210 cells", "type": "cell-based, murine", "conditions": "7 μM, 15 min", "method": "FIG. 10. Concentration-dependent inhibition of nucleoside transport by the TT analog TT2 in L1210 cells in vitro. […] After washing thrice with PBS, intact cell pellets were harvested by centrifugation, incubated for 30 min in 1 ml of HLB containing 0.2% Triton X-100, and these lysates were mixed with scintillation cocktail and counted to estimate the cellular uptake of ^3H-thymidine. Results are expressed as % of ^3H-thymidine transported into vehicle-treated control cells over 30 sec (15,031±872 cpm; 100±6%; striped area).\nFIG. 11. Comparison of the inhibitory effects of novel TT analogs on DNA synthesis (open) and nucleoside transport (striped) in L1210 cells in vitro. The cellular uptake of ^3H-thymidine (striped) and the rate of ^3H-thymidine incorporation into DNA (open) were determined in cells (1.38×10^6/0.5 ml of RPMI 1640 medium) respectively preincubated at 37° C. for 15 or 90 min in the presence or absence (control) of 7 μM concentrations of the indicated compounds. […] Results are expressed as % of ^3H-thymidine transported into vehicle-treated control cells over 30 sec (15,539±1,767 cpm; 100±11%; striped control). […] Results are expressed as % of ^3H-thymidine incorporation into DNA in vehicle-treated control cells over 30 min (28,505±2,594 cpm; 100±9%; open control). […]"}, "[2]": {"system": "L1210 cells", "assay": "DNA synthesis (3H-thymidine incorporation) in L1210 cells", "type": "cell-based, murine", "conditions": "7 μM, 2 h", "method": "FIG. 9. […] Cells (1.14×10^6/0.5 ml of RPMI 1640 medium) were incubated at 37° C. for 90 min in the presence or absence (control) of the indicated concentrations of drugs, which are plotted on a logarithmic scale, and then pulse-labeled for an additional 30 min to determine the rate of ^3H-thymidine incorporation into DNA.\nFIG. 11. […] The cellular uptake of ^3H-thymidine (striped) and the rate of ^3H-thymidine incorporation into DNA (open) were determined in cells (1.38×10^6/0.5 ml of RPMI 1640 medium) respectively preincubated at 37° C. for 15 or 90 min in the presence or absence (control) of 7 μM concentrations of the indicated compounds. For the cellular transport of nucleosides, preincubated cells were then exposed to 1 μCi of ^3H-thymidine for 30 sec at 37° C. […] For DNA synthesis, preincubated cells were then pulse-labeled with 1 μCi of ^3H-thymidine for an additional 30 min at 37° C.\nFIG. 12. […] The cellular uptake of ^3H-thymidine (striped) and the rate of ^3H-thymidine incorporation into DNA (open) were determined in cells (1.64×10^6/0.5 ml of RPMI 1640 medium) respectively preincubated at 37° C. for 15 or 60 min in the presence or absence (control) of 10 and 25 μM TT2 or 25 μM H10. […] After preincubation, vehicle-treated controls were similarly spun and washed. […]"}},
  "note": "Some of these results come from one statement about several compounds together. At least one compound was matched to its structure with a doubt left.",
  "data": [
    {"smiles": "COC(=O)[C@@]12C(=O)C=CC(=O)[C@@H]1C1c3ccccc3C2c2c(OC)ccc(OC)c21", "note": "(relative stereo) [TT11, (4aR*,9aR*)-5,8-Dimethoxy-4a-methoxycarbonyl-9,9a,10-trihydro-9,10-[1′,2′]benzenoanthracene-1,4-dione]", "values": [
      {"measurement": "% inhibition of cellular transport of 3H-thymidine", "setting": "[1]", "value": "44-57%"},
      {"measurement": "% inhibition of DNA synthesis (3H-thymidine incorporation into DNA)", "setting": "[2]", "value": "41-58%"}
    ]}
  ]
}
